No constants are given. Whether binding was seen depends on the method and setting. In cells and extracts the contact can be indirect. Binding can be weak; no strength is given.
Biological target: Ammonia monooxygenase subunit AmoA of Nitrososphaera viennensis (Nitrososphaera viennensis (endogenous in N. viennensis biomass))
Experiment: cross-linking

- binding: binds
Substance: Putative ammonia monooxygenase subunit AmoX of Nitrososphaera viennensis (from UniProt A0A060HKG4)

Source: paper doi:10.1101/2022.04.06.487334
